Consider one substance from article PMC5187411.

Amino acid sequences for entries named in this document (tags omitted). A change or cut given only in a name is not applied to a line headed by its entry.
UniProt Q388W2: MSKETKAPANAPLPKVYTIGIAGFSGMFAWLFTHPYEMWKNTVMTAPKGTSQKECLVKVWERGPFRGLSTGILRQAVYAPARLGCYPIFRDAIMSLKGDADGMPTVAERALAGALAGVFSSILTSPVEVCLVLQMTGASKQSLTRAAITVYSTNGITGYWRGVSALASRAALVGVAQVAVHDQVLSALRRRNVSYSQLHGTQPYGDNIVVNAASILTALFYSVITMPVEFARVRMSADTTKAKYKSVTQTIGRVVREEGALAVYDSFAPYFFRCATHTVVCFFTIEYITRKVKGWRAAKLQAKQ
UniProt Q38DQ3: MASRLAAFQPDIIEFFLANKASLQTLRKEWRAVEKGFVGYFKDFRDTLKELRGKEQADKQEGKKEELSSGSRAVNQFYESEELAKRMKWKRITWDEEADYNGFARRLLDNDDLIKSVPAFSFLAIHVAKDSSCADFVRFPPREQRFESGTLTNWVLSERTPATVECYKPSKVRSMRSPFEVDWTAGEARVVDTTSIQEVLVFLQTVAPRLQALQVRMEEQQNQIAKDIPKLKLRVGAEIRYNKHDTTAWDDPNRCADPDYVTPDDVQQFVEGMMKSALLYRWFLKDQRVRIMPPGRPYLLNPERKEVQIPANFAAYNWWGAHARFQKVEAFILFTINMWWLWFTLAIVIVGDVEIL

These are yes or no findings as the source states them, for the method shown. In cells and extracts the contact can be indirect. A result given as binding can be weak or reduced; the word gives no strength.

The assay concerns the target C-terminally myc-tagged MCP12 lacking the first module (T. brucei) (UniProt Q388W2). In words: co-IP; IP with anti-myc antibodies from digitonin-solubilized mitochondrial extracts of cells expressing MCP12-FL-myc or MCP12-ΔI-myc; immunoblot. For orientation: In western blotting, separated proteins are transferred to a membrane and probed.

Regarding TbTim42 (from UniProt Q38DQ3), the binding result is recorded as “binds”.
